Assay results: paper PMC3089618
Like-named read-outs stand apart in the source and are kept apart here. These are yes or no findings as the source states them, for the method shown. For some of these results: Binding seen in cells or lysates may run through a third protein. Some results given as binding are weak or reduced against the parent protein; the word gives no strength.

Sequences of proteins named here, by UniProt entry; tags and fusion partners are left off. A change or cut given only in a name is not applied to a line headed by its entry. Residues count along the entry.
UniProt Q9UNS1: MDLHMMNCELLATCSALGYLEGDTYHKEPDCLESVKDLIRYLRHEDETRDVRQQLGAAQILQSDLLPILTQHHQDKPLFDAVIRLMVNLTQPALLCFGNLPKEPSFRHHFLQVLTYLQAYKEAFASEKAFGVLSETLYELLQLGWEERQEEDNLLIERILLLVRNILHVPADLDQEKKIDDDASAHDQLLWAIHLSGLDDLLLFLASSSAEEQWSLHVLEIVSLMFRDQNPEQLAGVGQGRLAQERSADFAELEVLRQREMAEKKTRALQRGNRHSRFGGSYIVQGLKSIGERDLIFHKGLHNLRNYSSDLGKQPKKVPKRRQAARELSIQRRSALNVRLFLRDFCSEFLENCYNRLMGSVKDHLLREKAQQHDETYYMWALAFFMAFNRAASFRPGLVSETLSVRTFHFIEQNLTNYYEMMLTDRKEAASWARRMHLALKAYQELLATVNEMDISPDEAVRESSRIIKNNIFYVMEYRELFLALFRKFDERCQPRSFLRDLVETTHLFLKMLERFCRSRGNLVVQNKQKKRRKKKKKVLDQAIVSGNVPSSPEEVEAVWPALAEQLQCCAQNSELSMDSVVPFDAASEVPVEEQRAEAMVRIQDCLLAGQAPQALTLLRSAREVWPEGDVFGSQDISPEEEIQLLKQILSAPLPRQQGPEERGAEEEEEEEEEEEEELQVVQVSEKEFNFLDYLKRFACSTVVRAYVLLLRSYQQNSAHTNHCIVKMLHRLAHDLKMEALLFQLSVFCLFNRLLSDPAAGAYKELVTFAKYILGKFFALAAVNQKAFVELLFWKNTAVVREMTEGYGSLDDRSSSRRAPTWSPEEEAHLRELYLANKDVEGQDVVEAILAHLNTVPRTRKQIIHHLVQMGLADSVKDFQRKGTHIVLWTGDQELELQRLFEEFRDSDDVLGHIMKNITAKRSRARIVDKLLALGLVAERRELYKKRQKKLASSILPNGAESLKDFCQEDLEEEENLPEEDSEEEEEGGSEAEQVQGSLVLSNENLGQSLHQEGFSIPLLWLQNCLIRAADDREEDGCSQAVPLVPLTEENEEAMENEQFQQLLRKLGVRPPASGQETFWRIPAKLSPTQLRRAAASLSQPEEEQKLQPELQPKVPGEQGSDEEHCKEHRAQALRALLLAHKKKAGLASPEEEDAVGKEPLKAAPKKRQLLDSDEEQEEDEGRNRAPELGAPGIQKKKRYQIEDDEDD
FLAG-Tim (Δ1000–1208): residues 1-999 of Q9UNS1
UniProt P53350: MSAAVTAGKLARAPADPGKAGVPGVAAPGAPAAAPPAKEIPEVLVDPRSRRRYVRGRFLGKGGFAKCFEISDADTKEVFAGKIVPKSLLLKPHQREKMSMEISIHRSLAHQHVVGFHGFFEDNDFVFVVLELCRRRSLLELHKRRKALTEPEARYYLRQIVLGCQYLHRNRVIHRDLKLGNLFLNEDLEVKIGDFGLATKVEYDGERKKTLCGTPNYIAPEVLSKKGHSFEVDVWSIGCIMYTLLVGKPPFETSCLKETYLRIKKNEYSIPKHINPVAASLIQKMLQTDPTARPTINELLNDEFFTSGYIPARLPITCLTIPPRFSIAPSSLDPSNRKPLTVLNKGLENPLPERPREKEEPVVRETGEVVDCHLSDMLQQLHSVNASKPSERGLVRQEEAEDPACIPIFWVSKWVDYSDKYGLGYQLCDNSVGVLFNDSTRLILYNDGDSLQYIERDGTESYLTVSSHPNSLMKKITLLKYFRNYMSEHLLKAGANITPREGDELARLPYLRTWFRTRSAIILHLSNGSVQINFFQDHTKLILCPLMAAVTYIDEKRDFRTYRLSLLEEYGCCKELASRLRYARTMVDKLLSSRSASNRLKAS
UniProt Q96GD4: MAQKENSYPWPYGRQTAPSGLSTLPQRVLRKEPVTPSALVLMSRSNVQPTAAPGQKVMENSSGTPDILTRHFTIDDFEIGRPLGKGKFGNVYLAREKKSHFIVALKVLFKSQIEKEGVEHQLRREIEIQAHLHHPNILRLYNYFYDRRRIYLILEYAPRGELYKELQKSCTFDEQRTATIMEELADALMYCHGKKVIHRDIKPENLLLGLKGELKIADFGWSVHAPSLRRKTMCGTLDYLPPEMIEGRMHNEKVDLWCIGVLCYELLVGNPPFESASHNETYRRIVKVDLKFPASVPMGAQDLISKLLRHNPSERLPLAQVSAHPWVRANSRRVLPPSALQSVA

Legend:
[1] = target: endogenous Tim, HCT116 cells (human (endogenous in HCT116)) (UniProt Q9UNS1); experiment: co-IP; HCT116 cells synchronised by double thymidine block and release (0, 2, 4, 6, 8 hrs), IP with anti-Tim or control IgG, or reverse IP with anti-Plk1 or anti-Aurora A, Western blot
[2] = target: GST-tagged Plk1 from E. coli (UniProt P53350); experiment: pull-down; GST pull-down: purified GST or GST-Plk1 as bait, baculovirus expressed His-Tim or His-Rap1 as prey, bound proteins detected by anti-His Western blot; both purified
[3] = target: FLAG-tagged Tim protein (human Timeless), wild type (human) (UniProt Q9UNS1); experiment: co-IP; FLAG-Tim wt or deletion mutants transfected in 293 cells, FLAG IP, Western blot for endogenous Plk1
[4] = target: FLAG-Tim (Δ1000–1208) (human) (UniProt Q9UNS1); experiment: as above
[5] = target: T1, endogenous Aurora A, HCT116 cells (human (endogenous in HCT116)) (UniProt O14965); experiment: co-IP; HCT116 cells synchronised by double thymidine block and release (0, 2, 4, 6, 8 hrs), IP with anti-Tim or control IgG, or reverse IP with anti-Plk1 or anti-Aurora A, Western blot
T1 sequence: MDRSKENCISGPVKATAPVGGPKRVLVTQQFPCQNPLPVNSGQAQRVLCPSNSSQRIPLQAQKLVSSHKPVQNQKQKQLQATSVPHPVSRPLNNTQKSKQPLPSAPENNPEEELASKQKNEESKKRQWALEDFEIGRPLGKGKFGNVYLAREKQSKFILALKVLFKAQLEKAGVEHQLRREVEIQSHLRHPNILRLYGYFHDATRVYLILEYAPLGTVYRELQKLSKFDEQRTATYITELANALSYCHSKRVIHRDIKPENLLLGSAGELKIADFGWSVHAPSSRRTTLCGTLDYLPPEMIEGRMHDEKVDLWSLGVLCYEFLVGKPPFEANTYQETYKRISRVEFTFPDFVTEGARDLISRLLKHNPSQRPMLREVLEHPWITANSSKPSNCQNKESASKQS

[6] = target: endogenous Plk1, HCT116 cells (human (endogenous in HCT116)) (UniProt P53350); experiment: as above
[7] = target: endogenous Tim, Raji nuclear extract (human (endogenous in Raji)) (UniProt Q9UNS1); experiment: co-IP; asynchronous Raji nuclear extracts, IP with anti-Tim or control IgG, treated with 100 µg/ml DNase I for 30 min or buffer, extensive washing, Western blot
[8] = target: endogenous Tim, Raji nuclear extract (human (endogenous in Raji)) (UniProt Q9UNS1); experiment: as above; remark: listed apart in the source

## endogenous Aurora B, HCT116 cells (from UniProt Q96GD4 1-344) (enzyme)
[1]
  binding: binds

## endogenous Plk1, HCT116 cells (from UniProt P53350 1-603) (enzyme)
[1]
  binding: binds

## His-tagged Tim protein from baculovirus (from UniProt Q9UNS1 1-1208)
[2]
  binding: binds

## Polo-like kinase 1 (Plk1), endogenous in 293 cells (from UniProt P53350 1-603) (enzyme)
[3]
  binding: binds
[4]
  binding: binds

## endogenous Tim, HCT116 cells (from UniProt Q9UNS1 1-1208)
[5]
  binding: binds
[6]
  binding: binds

## endogenous Plk1, Raji nuclear extract (from UniProt P53350 1-603) (enzyme)
[7]
  binding: binds

B1: endogenous Aurora A, Raji nuclear extract (enzyme, UniProt O14965 1-403)
chain: T1 sequence
[8]
  binding: binds

B2: endogenous Aurora A, HCT116 cells (enzyme, UniProt O14965 1-403)
chain: T1 sequence
[1]
  binding: binds
